Reference: PMC5674072
These are yes or no findings as the source states them, for the method shown. Binding seen in cells or lysates may run through a third protein. Some binding calls cover weakened binding; strength is not graded here.

By UniProt entry, the sequences of proteins in these tests, tags left out.
UniProt Q13838: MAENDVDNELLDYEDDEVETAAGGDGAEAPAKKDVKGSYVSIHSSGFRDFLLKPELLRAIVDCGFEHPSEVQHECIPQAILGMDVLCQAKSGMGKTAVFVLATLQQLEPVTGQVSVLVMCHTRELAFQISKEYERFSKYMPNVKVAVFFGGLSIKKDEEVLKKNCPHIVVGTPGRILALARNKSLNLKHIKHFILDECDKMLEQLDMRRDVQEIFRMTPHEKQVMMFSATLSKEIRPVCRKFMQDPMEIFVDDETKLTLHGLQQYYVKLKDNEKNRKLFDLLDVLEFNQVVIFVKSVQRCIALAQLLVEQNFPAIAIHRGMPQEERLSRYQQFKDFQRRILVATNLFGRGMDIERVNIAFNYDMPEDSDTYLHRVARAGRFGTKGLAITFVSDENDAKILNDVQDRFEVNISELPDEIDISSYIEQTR

Biological target: T1, Matrin 3 of human post-mortem lumbar spinal cord (human (endogenous in lumbar spinal cord tissue)) (UniProt P43243)
T1 sequence: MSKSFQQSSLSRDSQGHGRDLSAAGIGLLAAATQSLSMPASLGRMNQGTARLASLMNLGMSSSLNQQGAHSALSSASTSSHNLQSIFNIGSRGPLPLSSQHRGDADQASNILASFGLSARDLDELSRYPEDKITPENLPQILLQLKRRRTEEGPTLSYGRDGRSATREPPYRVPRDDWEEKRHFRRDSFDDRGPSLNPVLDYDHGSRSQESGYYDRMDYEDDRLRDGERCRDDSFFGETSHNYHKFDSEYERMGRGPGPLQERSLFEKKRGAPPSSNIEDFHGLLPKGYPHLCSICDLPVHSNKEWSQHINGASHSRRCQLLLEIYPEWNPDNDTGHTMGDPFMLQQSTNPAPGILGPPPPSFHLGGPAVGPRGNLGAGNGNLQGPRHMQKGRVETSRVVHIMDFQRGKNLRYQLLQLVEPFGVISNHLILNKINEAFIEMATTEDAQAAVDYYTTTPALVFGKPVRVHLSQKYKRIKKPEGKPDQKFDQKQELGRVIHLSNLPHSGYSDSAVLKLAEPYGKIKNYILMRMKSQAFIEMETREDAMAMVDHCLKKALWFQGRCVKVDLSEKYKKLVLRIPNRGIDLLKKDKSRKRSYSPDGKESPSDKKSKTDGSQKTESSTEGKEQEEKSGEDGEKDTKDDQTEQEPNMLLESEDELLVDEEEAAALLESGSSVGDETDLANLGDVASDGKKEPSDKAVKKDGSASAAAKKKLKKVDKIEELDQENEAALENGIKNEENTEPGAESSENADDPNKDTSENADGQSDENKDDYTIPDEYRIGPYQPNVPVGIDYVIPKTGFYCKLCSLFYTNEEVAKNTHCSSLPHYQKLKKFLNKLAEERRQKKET
Experiment: co-IP; Matrin 3 IP from nuclear lysates (150 µg protein) of human post-mortem lumbar spinal cord, controls n = 3 and ALS patients n = 3; western blot for Ddx39b and Matrin 3

In the case of “Ddx39b of human post-mortem lumbar spinal cord (from UniProt Q13838 1-428)”, the binding is reported as “binds”.
